Data source: PubChem BioAssay AID504804 (Drosophila RNAi Screening Center, 2011)
In all, the deposit lists about 19,000 reagents; below is an unselected part of those with a known target gene and a result. Of all reagents, 47 (0.25%) are marked active. 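Signals are raw, not normalised; exact z-scores behind calls not deposited; actives needed confirmation, so some wells reaching 2 SD are inactive.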

Test: 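dsRNAs that improve Kc cell survival under doxorubicin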 (primary screen)
Cell system: Drosophila Kc cells
Knock-down reagent: long dsRNA against Drosophila genes, 0.5 µg dsRNA per well
Timing: 96 h (48 h knock-down, then 48 h drug)
Challenge: doxorubicin 5 µg/ml for 48 h, added 48 h after dsRNA
Measurement: 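Viability measured as cellular ATP by luminescence after 48 h knock-down then 48 h doxorubicin at 5 µg/ml; unnormalised plate counts for each replicate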
Scale: raw ATP luminescence: higher = more viable cells, protection from doxorubicin
Call rule: 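Active when both duplicate wells lie at least 2 SD above the plate mean and protection is confirmed by rescreening and independent dsRNAs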

Rap1 [DRSC08686]
- raw ATP luminescence, replicate 1: 74103
- raw ATP luminescence, replicate 2: 67900
- Outcome: inactive

CG12341 [DRSC06133]
- raw ATP luminescence, replicate 1: 28887
- raw ATP luminescence, replicate 2: 78820
- Outcome: inactive

Ser6 [DRSC20574]
- raw ATP luminescence, replicate 1: 3.37e5
- raw ATP luminescence, replicate 2: 3.33e5
- Outcome: inactive

CG43902 [DRSC17999]
- raw ATP luminescence, replicate 1: 2.91e5
- raw ATP luminescence, replicate 2: 2.99e5
- Outcome: inactive

Rabex-5 [DRSC08628]
- raw ATP luminescence, replicate 1: 65660
- raw ATP luminescence, replicate 2: 63520
- Outcome: inactive

CG10029 [DRSC12498]
- raw ATP luminescence, replicate 1: 70757
- raw ATP luminescence, replicate 2: 70390
- Outcome: inactive

Tsp42Ek [DRSC06187]
- raw ATP luminescence, replicate 1: 47447
- raw ATP luminescence, replicate 2: 70310
- Outcome: inactive

CG12499 [DRSC14521]
- raw ATP luminescence, replicate 1: 53350
- raw ATP luminescence, replicate 2: 64340
- Outcome: inactive

CG3860 [DRSC04425]
- raw ATP luminescence, replicate 1: 93790
- raw ATP luminescence, replicate 2: 79097
- Outcome: inactive

CG14384 [DRSC14842]
- raw ATP luminescence, replicate 1: 1.29e5
- raw ATP luminescence, replicate 2: 76330
- Outcome: inactive

CG15498 [DRSC15040]
- raw ATP luminescence, replicate 1: 38910
- raw ATP luminescence, replicate 2: 38150
- Outcome: inactive

RpL37A [DRSC02899]
- raw ATP luminescence, replicate 1: 21573
- raw ATP luminescence, replicate 2: 19220
- Outcome: inactive

Dbp73D [DRSC11142]
- raw ATP luminescence, replicate 1: 34340
- raw ATP luminescence, replicate 2: 30873
- Outcome: inactive

CG9988 [DRSC16587]
- raw ATP luminescence, replicate 1: 63730
- raw ATP luminescence, replicate 2: 44900
- Outcome: inactive

fzr2 [DRSC04280]
- raw ATP luminescence, replicate 1: 64463
- raw ATP luminescence, replicate 2: 62150
- Outcome: inactive

Cdep [DRSC12028]
- raw ATP luminescence, replicate 1: 71280
- raw ATP luminescence, replicate 2: 51600
- Outcome: inactive

Cdep [DRSC12220]
- raw ATP luminescence, replicate 1: 39147
- raw ATP luminescence, replicate 2: 33100
- Outcome: inactive

Cdep [DRSC12291]
- raw ATP luminescence, replicate 1: 47650
- raw ATP luminescence, replicate 2: 48327
- Outcome: inactive

CG16711 [DRSC10220]
- raw ATP luminescence, replicate 1: 86517
- raw ATP luminescence, replicate 2: 64740
- Outcome: inactive

por [DRSC20362]
- raw ATP luminescence, replicate 1: 3.45e5
- raw ATP luminescence, replicate 2: 3.06e5
- Outcome: inactive

CG13040 [DRSC09921]
- raw ATP luminescence, replicate 1: 36633
- raw ATP luminescence, replicate 2: 25120
- Outcome: inactive

Cyt-b5-r [DRSC03308]
- raw ATP luminescence, replicate 1: 74620
- raw ATP luminescence, replicate 2: 84967
- Outcome: inactive

Mnr [DRSC20549]
- raw ATP luminescence, replicate 1: 2.87e5
- raw ATP luminescence, replicate 2: 2.69e5
- Outcome: inactive

Mnr [DRSC20550]
- raw ATP luminescence, replicate 1: 4.28e5
- raw ATP luminescence, replicate 2: 2.91e5
- Outcome: inactive

CG9449 [DRSC11073]
- raw ATP luminescence, replicate 1: 67583
- raw ATP luminescence, replicate 2: 73487
- Outcome: inactive

Usp32 [DRSC10979]
- raw ATP luminescence, replicate 1: 56717
- raw ATP luminescence, replicate 2: 68910
- Outcome: inactive

CG9586 [DRSC03270]
- raw ATP luminescence, replicate 1: 39540
- raw ATP luminescence, replicate 2: 89847
- Outcome: inactive

sax [DRSC07675]
- raw ATP luminescence, replicate 1: 68470
- raw ATP luminescence, replicate 2: 60953
- Outcome: inactive

Alg13 [DRSC14864]
- raw ATP luminescence, replicate 1: 68140
- raw ATP luminescence, replicate 2: 58430
- Outcome: inactive

CG18545 [DRSC15343]
- raw ATP luminescence, replicate 1: 57453
- raw ATP luminescence, replicate 2: 57127
- Outcome: inactive

Ilk [DRSC11868]
- raw ATP luminescence, replicate 1: 1.83e5
- raw ATP luminescence, replicate 2: 1.86e5
- Outcome: inactive

HP1e [DRSC16379]
- raw ATP luminescence, replicate 1: 27807
- raw ATP luminescence, replicate 2: 48727
- Outcome: inactive

Rpp30 [DRSC00320]
- raw ATP luminescence, replicate 1: 1.03e5
- raw ATP luminescence, replicate 2: 61447
- Outcome: inactive

CG10793 [DRSC17760]
- raw ATP luminescence, replicate 1: 52440
- raw ATP luminescence, replicate 2: 71050
- Outcome: inactive

CG17167 [DRSC20902]
- raw ATP luminescence, replicate 1: 2.43e5
- raw ATP luminescence, replicate 2: 2.52e5
- Outcome: inactive

CG17167 [DRSC20903]
- raw ATP luminescence, replicate 1: 2.83e5
- raw ATP luminescence, replicate 2: 2.15e5
- Outcome: inactive

Only “raw ATP luminescence, replicate 2” (3 entries from above):
CG16711 [DRSC10220] = 64740
por [DRSC20362] = 3.06e5
CG13040 [DRSC09921] = 25120
